No constants are given. Whether binding was seen depends on the method and setting. Binding seen in cells or lysates may run through a third protein. Some results given as binding are weak or reduced against the parent protein; the word gives no strength.
Target: MDM2 (mouse (endogenous in MEF)) (UniProt P23804)
Assay: co-IP; anti-MDM2 immunoprecipitation from NP-40 lysates of Men1^f/f and Men1^Δ/Δ MEF cells, protein A/G beads, 4 °C, western blotting; IgG as negative control

Amino acid sequences for entries named in this document (tags omitted).
UniProt P23804: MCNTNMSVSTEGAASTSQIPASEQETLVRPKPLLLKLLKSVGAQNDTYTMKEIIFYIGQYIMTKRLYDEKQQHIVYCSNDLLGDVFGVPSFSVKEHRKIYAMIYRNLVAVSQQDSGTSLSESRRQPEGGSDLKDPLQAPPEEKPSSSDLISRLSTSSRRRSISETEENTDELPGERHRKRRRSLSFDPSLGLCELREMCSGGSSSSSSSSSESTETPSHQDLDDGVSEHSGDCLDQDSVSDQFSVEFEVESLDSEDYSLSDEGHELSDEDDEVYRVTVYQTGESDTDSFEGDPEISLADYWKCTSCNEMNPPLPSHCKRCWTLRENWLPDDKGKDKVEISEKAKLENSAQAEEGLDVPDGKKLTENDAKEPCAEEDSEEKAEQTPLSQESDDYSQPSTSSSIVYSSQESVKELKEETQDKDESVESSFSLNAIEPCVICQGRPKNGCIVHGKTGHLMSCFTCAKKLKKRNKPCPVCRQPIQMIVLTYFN

- binding: binds
B1: MDMX (protein, UniProt O35618 1-489)
chain: MTSHSTSAQCSASDSACRISSEQISQVRPKLQLLKILHAAGAQGEVFTMKEVMHYLGQYIMVKQLYDQQEQHMVYCGGDLLGDLLGCQSFSVKDPSPLYDMLRKNLVTSASINTDAAQTLALAQDHTMDFPSQDRLKHGATEYSNPRKRTEEEDTHTLPTSRHKCRDSRADEDLIEHLSQDETSRLDLDFEEWDVAGLPWWFLGNLRNNCIPKSNGSTDLQTNQDIGTAIVSDTTDDLWFLNETVSEQLGVGIKVEAANSEQTSEVGKTSNKKTVEVGKDDDLEDSRSLSDDTDVELTSEDEWQCTECKKFNSPSKRYCFRCWALRKDWYSDCSKLTHSLSTSNITAIPEKKDNEGIDVPDCRRTISAPVVRPKDGYLKEEKPRFDPCNSVGFLDLAHSSESQEIISSAREQTDIFSEQKAETESMEDFQNVLKPCSLCEKRPRDGNIIHGKTSHLTTCFHCARRLKKSGASCPACKKEIQLVIKVFIA
